Test results from publication PMC8423755.
No constants are given. Whether binding was seen depends on the method and setting. In cells and extracts the contact can be indirect. Some binding calls cover weakened binding; strength is not graded here. For some of these results: Sequences can lack the tags named with a protein.

Experiments:
[1] = biological target: T1, CARM1 (human (endogenous in A1847)) (UniProt Q86X55); experiment: proximity ligation; in situ PLA in fixed, permeabilised cells treated with or without tunicamycin; rabbit anti-XBP1 and mouse anti-CARM1 primary antibodies; isotype-matched IgG as negative control
T1 sequence: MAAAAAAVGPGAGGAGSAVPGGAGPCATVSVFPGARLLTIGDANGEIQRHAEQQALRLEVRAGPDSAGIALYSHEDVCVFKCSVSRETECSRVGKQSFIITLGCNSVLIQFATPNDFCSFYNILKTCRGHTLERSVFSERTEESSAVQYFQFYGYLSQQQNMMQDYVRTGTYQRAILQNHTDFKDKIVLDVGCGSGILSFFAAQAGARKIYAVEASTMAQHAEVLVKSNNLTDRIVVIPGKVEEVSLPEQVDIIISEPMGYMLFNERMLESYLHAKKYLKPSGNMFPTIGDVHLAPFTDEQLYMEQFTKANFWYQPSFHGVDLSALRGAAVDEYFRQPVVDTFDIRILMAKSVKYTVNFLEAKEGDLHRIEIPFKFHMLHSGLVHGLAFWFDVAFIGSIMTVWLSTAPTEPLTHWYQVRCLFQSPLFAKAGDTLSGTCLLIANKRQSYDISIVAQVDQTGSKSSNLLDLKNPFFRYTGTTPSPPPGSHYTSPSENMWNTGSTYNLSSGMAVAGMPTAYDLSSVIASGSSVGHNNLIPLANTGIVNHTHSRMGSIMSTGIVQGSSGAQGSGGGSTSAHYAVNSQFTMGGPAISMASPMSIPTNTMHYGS

[2] = biological target: T1, CARM1 (human (endogenous in A1847)); experiment: co-IP; anti-CARM1 antibody (control IgG) with protein A + G Dynabeads in extracts of A1847 cells treated with or without tunicamycin (5 ug/ml, 8 h); washes in buffer A with 150 mM NaCl; western blot
[3] = biological target: T2, GST-tagged CARM1 catalytic domain (141-480) (human) (UniProt Q86X55); experiment: pull-down; GST-CARM1 or GST-CARM1 truncation mutants on glutathione-sepharose beads, mixed with extracts of A1847 cells treated with vehicle or tunicamycin (5 ug/ml, 8 h), 4 C, 4 h, buffer A with 150 mM NaCl; western blot; only the target purified
T2 sequence: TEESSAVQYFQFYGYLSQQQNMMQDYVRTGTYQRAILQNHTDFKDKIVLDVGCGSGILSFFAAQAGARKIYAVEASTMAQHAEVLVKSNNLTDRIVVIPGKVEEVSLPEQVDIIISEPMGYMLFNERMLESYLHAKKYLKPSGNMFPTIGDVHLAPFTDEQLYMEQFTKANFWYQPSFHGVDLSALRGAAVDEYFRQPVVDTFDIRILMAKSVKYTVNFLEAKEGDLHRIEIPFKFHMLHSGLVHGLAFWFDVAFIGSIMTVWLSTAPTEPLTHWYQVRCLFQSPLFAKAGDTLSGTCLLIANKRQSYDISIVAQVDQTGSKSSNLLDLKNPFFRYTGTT

GST-tagged CARM1 (human) = biological target: T3, GST-tagged CARM1 (human) (UniProt Q86X55); experiment: as above
T3 sequence: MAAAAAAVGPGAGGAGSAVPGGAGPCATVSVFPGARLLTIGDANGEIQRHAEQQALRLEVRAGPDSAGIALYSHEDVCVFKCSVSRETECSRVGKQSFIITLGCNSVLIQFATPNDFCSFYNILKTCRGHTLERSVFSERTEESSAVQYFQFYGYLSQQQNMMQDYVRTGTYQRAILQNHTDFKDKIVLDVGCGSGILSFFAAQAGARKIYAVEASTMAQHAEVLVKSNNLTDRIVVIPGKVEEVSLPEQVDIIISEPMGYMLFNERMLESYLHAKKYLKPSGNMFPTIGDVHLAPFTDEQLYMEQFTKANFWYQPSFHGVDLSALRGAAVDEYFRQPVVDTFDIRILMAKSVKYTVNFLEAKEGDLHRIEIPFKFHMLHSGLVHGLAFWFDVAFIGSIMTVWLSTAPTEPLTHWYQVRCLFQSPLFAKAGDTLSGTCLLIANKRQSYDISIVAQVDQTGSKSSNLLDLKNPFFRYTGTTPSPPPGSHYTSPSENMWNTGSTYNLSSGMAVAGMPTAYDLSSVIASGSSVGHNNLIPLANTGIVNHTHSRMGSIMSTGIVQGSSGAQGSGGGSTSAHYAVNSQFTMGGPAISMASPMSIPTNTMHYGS

Measured: binding

B1: spliced XBP1 (XBP1s) (protein, UniProt P17861-2 1-376)
chain: MVVVAAAPNPADGTPKVLLLSGQPASAAGAPAGQALPLMVPAQRGASPEAASGGLPQARKRQRLTHLSPEEKALRRKLKNRVAAQTARDRKKARMSELEQQVVDLEEENQKLLLENQLLREKTHGLVVENQELRQRLGMDALVAEEEAEAKGNEVRPVAGSAESAAGAGPVVTPPEHLPMDSGGIDSSDSESDILLGILDNLDPVMFFKCPSPEPASLEELPEVYPEGPSSLPASLSLSVGTSSAKLEAINELIRFDHIYTKPLVLEIPSETESQANVVVKIEEAPLSPSENDHPEFIVSVKEEPVEDDLVPELGISNLLSSSHCPKPSSCLLDAYSDCGYGGSLSPFSDMSSLLGVNHSWEDTFANELFPQLISV
binds: [1] | [2] | [3] | GST-tagged CARM1 (human)
